For 41 compounds, double positive events and percent response (vesicle binding) results are on record in PubChem BioAssay AID2810 (NMMLSC, 2010).

This experiment in a line: modulators of CD8 T cell-vesicle binding, confirmation, cherry-picked primary hits, two concentrations (AID 2810).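 For all read-outs here: lower values mean blocking of vesicle binding.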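 For percent response (vesicle binding): ratio of mean FL2 vesicle stain of CD8+ cells to that row's control.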 The note with it: 2C CD8+ T cell-vesicle binding, flow cytometry; for double positive events: CD8+/vesicle+ events. A general note: A flow cytometer gives signals particle by particle.
[1] abbreviates: at 15.4 µM, stronger effect = lower value.

The other results are listed elsewhere or left out. Further columns of the screen follow, without active or inactive calls.

Where the note is “at 7.7 µM”, `Cc1sc2nc(COC(=O)c3ccc(N4CCCC(C)C4)c([N+](=O)[O-])c3)[nH]c(=O)c2c1C` (configuration not stated) yielded a double positive events of 33.6% and a percent response (vesicle binding) of 195%. For the same compound, the double positive events under setting [1] is 32%.
For `CCCCNc1nc(N)ncc1[N+](=O)[O-]`, under “at 7.7 µM”, the double positive events is 12.9% and the percent response (vesicle binding) stood at 503%. Under setting [1], this compound registered a double positive events of 22.4%.
Under “at 7.7 µM”, `CCn1cc(C(=O)O)c(=O)c2cc(F)c(N3CCN(C(=S)NC(=O)c4ccccc4)CC3)cc21` yielded a double positive events of 14.9% and a percent response (vesicle binding) of 203%. For the same compound, under setting [1], the double positive events turned out to be 35.7%.
As to `Cc1nc(Cl)c(C(=O)NC(=O)NCc2ccccc2)c(C)c1Cl`, where the note is “at 7.7 µM”, the double positive events was determined as 43.1% and the percent response (vesicle binding) is 150%. For the same compound, under setting [1], the double positive events came to 14.3%.
On the same counts, the results for `CCN(CC(=O)Nc1ccc2c(c1)OCCO2)C(=O)CCc1ccccc1Cl` are 12.1%, 402% and 20.8%.
Taken in the same sequence, the figures for `O=C(COC(=O)c1ccc(F)cc1)NC1CC1` were 21.2%, 413% and 14.8%.
Taken in the same sequence, the figures for `COCCN(C(=O)CSc1nncn1-c1ccccc1)c1c(N)n(Cc2ccccc2)c(=O)[nH]c1=O` were 14.3%, 126% and 18.4%.
Where the note is “at 7.7 µM”, `Cc1ccc(NC(=O)CN(C)C(=O)Cn2cc(C(F)(F)F)ccc2=O)cc1` returned a double positive events of 19.4% and a percent response (vesicle binding) of 612%. Under setting [1], the double positive events turned out to be 15.7%.
Consider `CCCOc1ccc(N2C(=O)CC(N3CCOCC3)C2=O)cc1` (configuration not stated), for which, under “at 7.7 µM”, the double positive events turned out to be 17.3% and the percent response (vesicle binding) came out at 218%. Further, the double positive events under setting [1] came out at 29.6%.
Where the note is “at 7.7 µM”, `Cc1ccc(NC(=O)C2CC(=O)n3c(nc4ccccc43)N2)cc1` (configuration not stated) displayed a double positive events of 14.8% and a percent response (vesicle binding) of 399%. This compound also showed a double positive events under setting [1] of 14.3%.
`O=S(=O)(Nc1cccc2cccnc12)c1ccc(S(=O)(=O)N2CCCC2)cc1`: the double positive events by setting is: (at 7.7 µM) 22.4%; under setting [1], 8.8%. For the setting “at 7.7 µM”, this compound yielded a percent response (vesicle binding) of 787%.
Under “at 7.7 µM”, `O=C(NC(NC(=S)Nc1ccccc1C(=O)O)C(Cl)(Cl)Cl)c1ccco1` (configuration not stated) showed a double positive events of 11.5% and a percent response (vesicle binding) of 252%. The compound further gave a double positive events under setting [1] of 27.9%.
For the compound `CCOC(=O)N1CCN(c2nc(-c3ccco3)cc(C(F)(F)F)n2)CC1`, the double positive events is 17.7% (at 7.7 µM) and 8.1% under setting [1]. Also, the percent response (vesicle binding) (at 7.7 µM) was determined as 257%.
Under “at 7.7 µM”, `CCCCCC(=O)NCC(C)NC(=O)CCCCC` (configuration not stated) came in with a double positive events of 24% and a percent response (vesicle binding) of 421%. Moreover, the double positive events under setting [1] came to 20.3%.
Turning to `Cc1ccc2[nH]cc(CCNC(=O)/C=C/c3ccco3)c2c1`, for the setting “at 7.7 µM”, the double positive events was 18.2% and the percent response (vesicle binding) amounted to 253%. Further, the double positive events under setting [1] came out at 13.8%.
Under “at 7.7 µM”, `COc1ccc(OC(C)C(=O)N2CCOCC2)cc1` (configuration not stated) yielded a double positive events of 25.2% and a percent response (vesicle binding) of 376%. Further, the double positive events under setting [1] came to 13.9%.
As for `Cc1ccc(NC(=O)CSc2nnc(-c3cccnc3)o2)c(C)c1`, the double positive events is 16.9% (at 7.7 µM) and 14% under setting [1]. Under “at 7.7 µM”, the percent response (vesicle binding) came to 196%.
For the setting “at 7.7 µM”, `CC1CCN(C(=O)c2ccc(S(=O)(=O)Cc3ccccc3F)c([N+](=O)[O-])c2)CC1` registered a double positive events of 11.7% and a percent response (vesicle binding) of 240%. This compound came in with a double positive events under setting [1] of 38%.
For the setting “at 7.7 µM”, `Cc1ccc(C)c(NC(=O)CN(C)C(=O)c2cc3c(s2)CCCCC3)c1` gave a double positive events of 20.2% and a percent response (vesicle binding) of 572%. Also, under setting [1], the double positive events is 8.6%.
Where the note is “at 7.7 µM”, `CC1CCCCC1NC(=O)COC(=O)c1ccc2ncsc2c1` (configuration not stated) gave a double positive events of 29.9% and a percent response (vesicle binding) of 235%. Further, under setting [1], the double positive events is 4.3%.
On to `Cc1nn(CC(=O)Nc2ccc3c(c2)nc(CN2CCCCC2)n3C)c(=O)c2ccccc12`, for which, under “at 7.7 µM”, the double positive events was 34.9% and the percent response (vesicle binding) was 156%. Besides, the double positive events under setting [1] amounted to 22.2%.
Turning to `O=C(CNC(=O)c1ccccc1F)NCCc1ccccc1F`, the double positive events is, setting by setting: (at 7.7 µM) 10.2%; under setting [1], 30.9%. For the setting “at 7.7 µM”, this compound came in with a percent response (vesicle binding) of 350%.
On the same counts, the results for `CCCCNC(=O)c1c(CSc2ccccc2)noc1C(=O)NCc1ccccc1` are 19.2%, 19.6% and 159%.
As to `O=C(NCc1ccc(Cl)cc1)c1ccc(CNc2c(N3CCCC3)c(=O)c2=O)cc1`, for the setting “at 7.7 µM”, the double positive events was determined as 16.9% and the percent response (vesicle binding) is 243%. This compound returned a double positive events under setting [1] of 13.1%.
On to `CCCNC(=O)C(Cc1ccccc1F)NC(=O)c1ccc(C#N)cc1` (configuration not stated), for which, under “at 7.7 µM”, the double positive events is 15% and the percent response (vesicle binding) worked out at 480%. In addition, the double positive events under setting [1] came out at 10.2%.
On the same counts, the results for `CC(C)c1ccc(NC(=O)c2cc(S(=O)(=O)NCC3COc4ccccc4O3)ccc2F)cc1` (configuration not stated) are 24.5%, 196% and 26.2%.
Taken in the same sequence, the figures for `CC(=O)c1cccc(NC(=O)c2ccncc2)c1` were 33.4%, 568% and 3.1%.
Under “at 7.7 µM”, `CCOC(=O)[C@H]1[C@H]2COc3ccc(Cl)cc3[C@@H]2N2C(=O)CN(Cc3ccco3)C(=O)[C@@]12C` came in with a double positive events of 11.4% and a percent response (vesicle binding) of 443%. The compound further gave a double positive events under setting [1] of 15.9%.
`NS(=O)(=O)c1ccc(CNC(=O)CSc2ccccc2)cc1` showed a double positive events (at 7.7 µM) of 14.3% and a double positive events under setting [1] of 13%. For the setting “at 7.7 µM”, the percent response (vesicle binding) is 163%.
Taken in the same sequence, the figures for `CCc1cc(C(=O)Nc2cc(S(=O)(=O)N(CC)CC)ccc2N2CCOCC2)sc1C` were 8.8%, 25.2% and 163%.
Turning to `NC(=O)c1c(NC(=O)c2cccnc2Cl)sc2c1CCCC2`, the double positive events turned out to be 8.6% (at 7.7 µM) and 25.5% under setting [1]. The same compound gave a percent response (vesicle binding) (at 7.7 µM) of 98.2%.
Take `Nc1c(C(=O)CSc2nnc(-c3ccccc3F)o2)c(=O)[nH]c(=O)n1C1CC1`: under “at 7.7 µM”, the double positive events came to 7.6% and the percent response (vesicle binding) is 240%. Moreover, under setting [1], the double positive events is 13.2%.
As for `O=C(c1cc2cc(F)ccc2[nH]1)N1CCCC(Nc2ccc(F)cc2)C1` (configuration not stated), for the setting “at 7.7 µM”, the double positive events came to 41.2% and the percent response (vesicle binding) is 543%. The compound also registered a double positive events under setting [1] of 26.8%.
As to `Cc1nnn(C23CC4CC(CC(CC(=O)Nc5ccc(C)c(Cl)c5)(C4)C2)C3)n1`, the double positive events amounted to 10% (at 7.7 µM) and 15.1% under setting [1]. The compound further displayed a percent response (vesicle binding) (at 7.7 µM) of 65.9%.
In the case of `CCC(NC(=O)C1CCC1)c1ccc(C)cc1` (configuration not stated), for the setting “at 7.7 µM”, the double positive events was found to be 5.4% and the percent response (vesicle binding) is 112%. In addition, the double positive events under setting [1] came to 33.3%.
For `Cc1ccc(C(C)C)c(OCCNS(C)(=O)=O)c1`, under “at 7.7 µM”, the double positive events stood at 10.3% and the percent response (vesicle binding) was 96.8%. In addition, the double positive events under setting [1] is 38.1%.
Where the note is “at 7.7 µM”, `CCCNC(=O)CN1CCN(S(=O)(=O)c2ccc(Br)s2)CC1` came in with a double positive events of 12.2% and a percent response (vesicle binding) of 380%. The double positive events under setting [1] came to 25.8%.
With `O=C(c1ccccc1F)N1CCc2ccccc21`, the double positive events reads like this: (at 7.7 µM) 37%; under setting [1], 19.5%.
As for `COc1ccccc1C(=O)n1nc(-c2ccco2)nc1SC`, for the setting “at 7.7 µM”, the double positive events amounted to 18.1% and the percent response (vesicle binding) was 226%. Besides, the double positive events under setting [1] was determined as 29.4%.
Under “at 7.7 µM”, `CCCCN(C(=O)C1CCC1)c1c(N)n(CC(C)C)c(=O)[nH]c1=O` returned a double positive events of 11.7% and a percent response (vesicle binding) of 163%. Under setting [1], this compound gave a double positive events of 18.2%.
As to `COc1cc(OC)c2cc(C(=O)N[C@H](C(=O)N3CCC[C@H]3C(=O)O)C(C)C)n(C)c2c1`, where the note is “at 7.7 µM”, the double positive events is 23.1% and the percent response (vesicle binding) came to 367%. In addition, the double positive events under setting [1] stood at 3.1%.
